Measurements published in EP4633740A2.
Results are given in words; binding and its absence hold for the method and conditions named. Some results given as binding are weak or reduced against the parent protein; the word gives no strength.

The chains behind the UniProt entries cited, without tags or fusion partners. Where a name states a change or a piece, a line headed by the entry shows the natural chain unless it says otherwise.
UniProt P06756: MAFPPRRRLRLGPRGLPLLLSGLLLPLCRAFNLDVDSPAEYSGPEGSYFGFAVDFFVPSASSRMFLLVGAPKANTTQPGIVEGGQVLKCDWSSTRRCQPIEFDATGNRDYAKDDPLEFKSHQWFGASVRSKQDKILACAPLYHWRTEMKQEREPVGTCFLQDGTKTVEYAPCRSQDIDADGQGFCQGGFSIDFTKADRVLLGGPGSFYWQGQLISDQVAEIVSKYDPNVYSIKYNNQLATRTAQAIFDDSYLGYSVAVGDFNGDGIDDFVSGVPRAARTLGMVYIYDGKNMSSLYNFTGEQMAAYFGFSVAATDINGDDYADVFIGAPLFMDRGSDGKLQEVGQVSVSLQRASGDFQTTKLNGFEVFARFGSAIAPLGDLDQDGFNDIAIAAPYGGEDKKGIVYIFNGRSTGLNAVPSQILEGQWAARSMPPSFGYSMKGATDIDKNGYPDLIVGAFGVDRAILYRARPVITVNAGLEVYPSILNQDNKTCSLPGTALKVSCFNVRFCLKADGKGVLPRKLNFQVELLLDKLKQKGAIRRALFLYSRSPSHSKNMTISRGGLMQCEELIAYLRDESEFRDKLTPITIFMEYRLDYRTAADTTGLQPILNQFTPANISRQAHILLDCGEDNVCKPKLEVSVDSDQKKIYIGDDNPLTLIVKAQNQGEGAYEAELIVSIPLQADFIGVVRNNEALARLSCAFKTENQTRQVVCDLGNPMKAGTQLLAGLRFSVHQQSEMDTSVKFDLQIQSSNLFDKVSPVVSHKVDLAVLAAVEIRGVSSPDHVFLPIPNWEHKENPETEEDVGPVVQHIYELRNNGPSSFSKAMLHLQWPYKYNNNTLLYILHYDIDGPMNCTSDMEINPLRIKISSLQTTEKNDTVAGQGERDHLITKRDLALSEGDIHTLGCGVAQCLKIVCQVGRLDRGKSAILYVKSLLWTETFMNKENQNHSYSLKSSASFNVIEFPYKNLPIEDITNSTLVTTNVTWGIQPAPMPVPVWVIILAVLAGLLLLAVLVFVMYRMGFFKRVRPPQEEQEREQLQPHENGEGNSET

Molecular target: human ITGAV/ITGB6 dimer protein (human) (UniProt P06756)
Assay: colorimetric ELISA, periplasmic extracts

Row | Binder | binding
1 | SEQ ID NO 17 (VHH) VHH: QVQLQESGGGLVQAGGSLRLSCAASGSIFSMNAMGWYRQAPGNQHELVAHIISGGSGNYPDSVKGRFTISKDNAENTFYLQMNSLKPEDTAVYYCYANIYGDKDRYTTYWGQGTQVTVSS | binds
2 | SEQ ID NO 2 (VHH) VHH: QVQLQESGGGLVQAGGSLRLSCAASGSIFSMNAMGWYRQAPGNQREIVAHIIGGGSTNYPDSVKGRFTISKDNAENTFYLQMNSLKPEDTAVYYCYANIYGDKDHYTTYWGQGTQVTVSS | binds
3 | SEQ ID NO 26 (VHH) VHH: QVQLQESGGGLVQAGGSLRLSCAASGSIFSMNAMGWYRQAPGNQRELVAHIISGGSGNYPDSVKGRFTISKDNAENTFYLQMNSLKPEDTAVYYCYANIYGDKDRYTTYWGQGTQVTVSS | binds
4 | SEQ ID NO 34 (VHH) VHH: QVQLQESGGGLVQAGETLGLSCVVSGNIRRFDSMGWYRQAPGKSREMVALITSGSNTAYPDSVKGRFTISRDNAENTFYLQMNSLKPEDTAVYYCSANIYVDSYHYTTYWGQGTQVTVSS | binds
5 | SEQ ID NO 10 (VHH) VHH: QVQLQESGGGNVQAGGSLRLSCAASGSIFFINTMGWYRQAPGNQRELVAHITSGNSTSYPDSTKGRFTISRDNAENTFYLQMNSLKPEDTAVYYCYANIYGDSSHYTTYWGQGTQVTVSS | binds
6 | SEQ ID NO 21 (VHH) VHH: QVQLQESGGGLVQAGESLRLSCAASGSIFSIDAMGWYRQAPGNQRELVAHIISGNSTAYPDSVKGRFTISRDNAENTFYLQMNSLKPEDTAVYYCYANIYSDSSRYTTYWGQGTQVTVSS | binds
7 | SEQ ID NO 13 (VHH) VHH: QVQLQESGGGLVQAGDSLRLSCAASGSIFSNNAMGWYRQAPGNQRELVALITSGGSTNYPDSVKGRFTISRDNAENTFYLQMNSLKPEDTAVYYCSANIYIDSYRYTTYWGQGTQVTVSS | binds
8 | SEQ ID NO 11 (VHH) VHH: QVQLQESGGGLVQAGGSLRLSCAASGSIFSIDAMGWYRQAPGNQRELVAHIISGNSTAYPDSVKGRFTISRDNAENTFYLQMNSLKPEDTAVYYCYANIYSDSYRYTTHWGQGTQVTVSS | binds
9 | SEQ ID NO 14 (VHH) VHH: QVQLQESGGGLVQAGGSLRLSCAASGSIFSINAMGWYRQAPGNQREMVAHITGGGSGAYPDSVKGRFTISRDNAENMFYLQMNSLKPEDTAVYYCSANIYRDSYRYTTYWGQGTQVTVSS | binds
10 | SEQ ID NO 15 (VHH) VHH: QVQLQESGGGLVQAGGSLRLSCAASGSIFSIDAMGWYRQAPGNQRELVAHIISGNSTAYPDSVKGRFTISRDNAENTFYLQMNSLKPEDTAVYYCYANIYSDSSRYTTYWGQGTQVTVSS | binds
11 | SEQ ID NO 20 (VHH) VHH: QVQLQESGGGTVQIGGSLRLSCAASGSIFSIDAMGWYRQAPGNQRELVAHITSGGSTAYPDSVKGRFTISRDNAENTFYLQMNSLKPEDTAVYYCSANIYGDSYRYTTYWGQGTQVTVSS | binds
12 | SEQ ID NO 3 (VHH) VHH: QVQLQESGGGLVQAGGSLRLSCAASGSIFSIDAMGWYRQAPGNQRELVAHITSGGSTAYPDSVKGRFTISRDNAENTFYLQMNSLKPEDTAVYYCSANIYGDSYRYTTYWGQGTQVTVSS | binds
13 | SEQ ID NO 4 (VHH) VHH: QVQLQESGGGLVQPGGSLRLSCAASGSIFSIDAMGWYRQAPGNQRELVAHIGSGGSTNYPDSVKGRFTISRDNAENTFYLQMNSLKPEDTAVYYCSANIYRDSYRYTTYWGQGTQVTVSS | binds
14 | SEQ ID NO 19 (VHH) VHH: QVQLQESGGGLVQPGGSLRLSCAASGSSSSINAMAWYRQAPGNQRDMVAHITSGGSTNYPDSVKGRFTISRDNAENTFYLQMNSLKPEDTAVYYCSANIYRDSYHYTTYWGQGTQVTVSS | binds
15 | SEQ ID NO 12 (VHH) VHH: QVQLQESGGGLVQAGGSLRLSCAASGTIFSINAMAWYRQAPGNQRDMVAHITSGGSTNYPDSVKGRFTISRDNAENTFYLQMNSLKPEDTAVYYCSANIYRDSYHYTTYWGQGTQVTVSS | binds
16 | SEQ ID NO 16 (VHH) VHH: QVQLQESGGGLVQAGGSLRLSCAASGSIFSINAMGWYRQAPGNQRELVAHITSGDNTAYPDSVKGRFTISRDNAENTFYLQMNSLKPEDTAVYYCYANIYGDSNHYTTYWGQGTQVTVSS | binds
17 | SEQ ID NO 18 (VHH) VHH: QVQLQESGGGLVQPGGSLRLSCAASGSIFSIDAMGWYRQGPGNQRELVAHITSGGSTSYIDSVKGRFTISRDNAENTFYLQMNSLKPEDTAVYYCSANIYGDSYRYTTYWGRGTQVTVSS | binds
18 | SEQ ID NO 24 (VHH) VHH: QVQLQESGGGLVQAGGSLRLSCAASGSIFSIDAMGWYRQAPGNQRELVAHIISGNSTAYPDSVKGRFTISRDNAENTSYLQMNSLKPEDTAVYYCYANIYSDSYRYTTHWGQGTQVTVSS | binds
19 | SEQ ID NO 36 (VHH) VHH: QVQLQESGGGLVQTGGSLRLACAASVSIASINFIGWYRQAPGNQREWVATVSSGDGTNYADSVKGRFTISRDNAKNTVYLQMNSLEPEDTAVYYCNVKQRGTYWGQGTQVTVSS | binds
20 | SEQ ID NO 37 (VHH) VHH: QVQLQESGGGLVQAGGSLRLACAASVSIASINFIGWYRQAPGNQREWVATVSSGDGTNYADSVKGRFTISRDNAKNTVYLQMNSLKPEDTAVYYCNVKQRGTYWGQGTQVTVSS | binds
21 | SEQ ID NO 38 (VHH) VHH: QVQLQESGGGLVQTGGSLRLACAASVSIASINFIGWYRRAPGNQREWVATVSSGDGTNYADSVKGRFTISRDNAKNTVYLQMNSLKPEDTAVYYCNVKQRGTYWGQGTQVTVSS | binds
22 | SEQ ID NO 40 (VHH) VHH: QVQLQESGGGLVQPGESLRLACAASVSIASINFIGWYRQAPGNQREWVATVSSGDGTNYADSVKGRFTISRDNAKNTVYLQMNSLKPEDTAVYYCNVKQRGTYWGQGTQVTVSS | binds

Second part, the binder after the results:

Row | binding | Binder
23 | binds | SEQ ID NO 27 (VHH) VHH: QVQLQESGGGLVQAGGSLELSCAASGIIPSLDEMSWYRQAPGNQRELVAHITSGGSTAYPDSVKGRFTISRDNAENTFYLQMNSLKPEDTAVYYCSANIYGDSYRYTTYWGQGTQVTVSS
24 | binds | SEQ ID NO 29 (VHH) VHH: QVQLQESGGGLVQAGGSLRLSCTASGSIFSMNAMGWYRQAPGNQRELVAHITSGDSTSYPDSTKGRFTISRDNAENTFYLQMNSLKPEDTAVYYCYANIYGDSSHYTTYWGQGTQVTVSS
25 | binds | SEQ ID NO 1 (VHH) VHH: QVQLQESGGGLVQAGGSLRLSCAASGSIFSINAMGWYRQAPGNQREMVALITSGSNTAYPDSVKGRFTISRDNAENTFYLQMNSLKPEDTAVYYCSANIYVDSYHYTTYWGQGTQVTVSS
26 | binds | SEQ ID NO 30 (VHH) VHH: QVQLQESGGGLVQPGGSLRLSCAASGSIFSIDAMGWYRQAPGNQRELVAHITSGGSTAYPDSVKGRFTISRDNAENTFYLQMNSLKPEDTAVYYCSANIYGDSYRYTTYWGQGTQVTVSS
27 | binds | SEQ ID NO 33 (VHH) VHH: QVQLQESGGGLVQAGGSLRLSCAASGSIFSINAMGWYRQAPGNQRELVAHITSGDNTAYPDSVKGRFTISRDNAENTFYLQMNSLKPEDTAVYYCYANIYADSYRYTTYWGQGTQVTVSS
28 | binds | SEQ ID NO 35 (VHH) VHH: QVQLQESGGGLVQAGGSLRLSCAASGSIFSMNAMGWYRQAPGNQRELVAHITSGNNANYPDSVKGRFTISRDNAENTFYLQMNSLKPEDTAVYYCYANIYADSYRYTTYWGQGTQVTVSS
29 | binds | SEQ ID NO 23 (VHH) VHH: QVQLQESGGGLVQAGGSLRLSCAASGSIFSMNAMGWYRQAPGNQRELVAHITSGNSTSYPDSTKGRFTISRDNAENTFYLQMNSLKPEDTAVYYCYANIYGDSSHYTTYWGQGTQVTVSS
30 | binds | SEQ ID NO 32 (VHH) VHH: QVQLQESGGGLVQPGGSLRLSCAASGSIFSMNAMGWYRQAPGNQRELVAHITSGNNANYPDSVKGRFTISRDNAENTFYLQMNSLKPEDTAVYYCYANIYADSYRYTTYWGQGTQVTVSS
31 | binds | SEQ ID NO 28 (VHH) VHH: QVQLQESGGGLVQAGGSLRLSCAASGSIFSIDAMGWYRQAPGNQRELVAHIISGNSTAYPDSVKGRFTISRDNAENTFYLQMNSLKPEDTAVYYCYANIYVDSYRYTTYWGQGTQVTVSS
32 | binds | SEQ ID NO 22 (VHH) VHH: QVQLQESGGGLVQAGGSLRLSCAASGSIFSIDAMGWYRQAPGNQRELVAHITSGSSANYPDSVKGRFTISRDNAENTFYLQMDSLKPEDTAVYYCYANIYSDSFHYTTYWGQGTQVTVSS
33 | binds | SEQ ID NO 25 (VHH) VHH: QVQLQESGGGLVQTGGSLRLSCAASGSIFSIDAMGWYRQAPGDQRELVAHMSTHGTTNYPDSVKGRFTISRDNAENTFYLQMNSLKPEDTAVYYCSANIYVDSYRYTTYWGQGTQVTVSS
34 | binds | SEQ ID NO 39 (VHH) VHH: QVQLQESGGGLVQTGGSLRLACAASVSIASINFIGWYRQAPGNQREWVATVSSGDGTNYADSVKGRFTISRDNAKNTVYLQMNSLKPEDTAVYYCNVKQRGTYWGQGTQVTVSS
